Data: PubChem BioAssay AID540256 (National Center for Advancing Translational Sciences (NCATS), 2011)
About 3,700 (1.2%) of roughly 300,000 compounds were called active. This list was built around the results that the source calls inconclusive (neither active nor inactive); the mix of calls is not that of the screen. Calls come from the whole dose curve; tested in HEK293 cells. Where the call is inconclusive, the potency comes from a doubtful curve fit. Where a SMILES comes first, the peptide text is derived from it. [ ]: non-standard residue; d: D form. pGlu = O=C1CC[CH](C(=O)O)N1

assay: qHTS for Inhibitors of binding or entry into cells for Lassa Virus; conditions: Lassa virus pseudotype entry inhibition, cell reporter; activity change, negative = inhibition: at 37.9 µM (top of the series) unless noted; note: nearly all actives have a fitted effect of over 50% in size
% is set by controls: 0 for no effect and ±100 for the full control effect; potency is the fitted concentration of half-maximal effect.

SMILES	Potency	activity change, negative = inhibition
CC1CCc2onc(C(=O)Nc3ccc(Cl)cc3)c2C1 (centres undefined)	inconclusive: 35.5 µM [activator, single point]	
COc1ccc(-c2noc(CNC(=O)c3cc(OC)c(OC)c(OC)c3)n2)cc1		inactive: 2.24% [at 46.1 µM]
NC(=O)c1ccc(Nc2ccc([N+](=O)[O-])cc2[N+](=O)[O-])cc1	inconclusive: 35.5 µM [activator, single point]	
COC(=O)c1ccc(NC(=O)CSC2=NCCN2)cc1	inconclusive: 22.4 µM [inhibitor, partial curve, poor fit]	
COc1ccccc1NC(=O)CCCC(=O)OC(C)C(=O)c1ccccc1 (centres undefined)	inconclusive: 35.5 µM [inhibitor, single point]	
Nc1c(N(CCC2=CCCCC2)C(=O)c2ccc([N+](=O)[O-])o2)c(=O)[nH]c(=O)n1Cc1ccccc1	inconclusive: 12.6 µM [inhibitor, single point]	
O=C(NC1CCCC1)c1ccc(CSCc2ccccc2F)o1	inconclusive: 29.1 µM [inhibitor, single point]	
Cc1ccc(-c2nsc(SCC(=O)NCC3CCCO3)n2)cc1 (centres undefined)		inactive: 0.243%
CC(=O)N1CCN(c2ccc(NC(=O)c3ccc4c(c3)OCCO4)cc2Cl)CC1	inconclusive: 8.91 µM [inhibitor, single point]	
CCN1CCN(c2ccc(S(=O)(=O)N3CCCCC3)cc2NC(=O)COc2ccc(Cl)cc2)CC1		inactive: -6.08%
CCOC(=O)C1CCCN(S(=O)(=O)c2cc(-c3onc(C)c3C)ccc2OC)C1 (centres undefined)	inconclusive: 6.31 µM [inhibitor, partial curve, poor fit]	
O=C(Cn1cc(COc2ccc3ccc(=O)oc3c2)nn1)c1ccc(O)cc1	inconclusive: 3.53 µM [activator, single point]	
Cc1cc(C)c2ccc3c(C)c(C)nc3c2[nH]1	inconclusive: 12.6 µM [inhibitor, partial curve, poor fit]	
O=C(Nc1cccc(S(=O)(=O)N2CCCCC2)c1)c1cccs1	inconclusive: 0.708 µM [activator, partial curve, poor fit]	
CCOc1ccccc1NC(=O)CSc1c2c(nc3ccc(Cl)cc13)CCCC2	inconclusive: 14.1 µM [inhibitor, single point]	
CC(=O)Nc1ccc(OCC(O)Cn2nc(C)c(Br)c2C)cc1 (centres undefined)		inactive: 2.63%
O=[N+]([O-])c1ccc(-c2ccn[nH]2)o1	inconclusive: 35.5 µM [activator, partial curve, poor fit]	
C=CCn1cc(/C=C2/NC(=O)NC2=O)c2ccccc21	inconclusive: 1 µM [inhibitor, single point]	
CCn1c(SCc2c(F)cccc2Cl)nnc1-c1ccco1		inactive: 1.18%
COC(=O)c1cc(NC(=O)c2c(F)c(F)c(F)c(F)c2F)cc(C(=O)OC)c1	inconclusive: 22.4 µM [inhibitor, single point]	
O=C(CSc1nc2ccccc2c(=O)[nH]1)Nc1ccc([N+](=O)[O-])cc1	inconclusive: 35.5 µM [inhibitor, single point]	
O=C(CSc1nc2ccccc2[nH]1)Nc1nc(-c2ccc(Br)cc2)cs1	inconclusive: 10 µM [inhibitor, partial curve, poor fit]	

SMILES	Potency	activity change, negative = inhibition
Cc1ccc(CNc2ccc3c(c2)nc(C)n3C)cc1	inconclusive: 8.91 µM [inhibitor, partial curve, poor fit]	
CC1Sc2n(c3ccccc3[n+]2C)N=C1c1ccccc1 (centres undefined)	inconclusive: 10 µM [inhibitor, partial curve, poor fit]	
C=C(C)C(O)C=Cc1ccc(C(F)(F)F)cc1 (centres undefined)	inconclusive: 2.66 µM [activator, single point]	
Cc1ccccc1Nc1nn2c(=O)c3ccc(C(=O)NCC(C)c4ccccc4)cc3nc2s1 (centres undefined)	inconclusive: 35.5 µM [inhibitor, single point]	
FC(F)(F)c1cc(-c2ccccc2)nc(-n2cncn2)n1	inconclusive: 0.206 µM [activator, full curve]	
O=c1c2[nH]c3ccccc3c2ncn1CCC1=CCCCC1		inactive: 3.84%
COc1ccc(C2=NS(=O)(=O)N(C)C(C(=O)Nc3ccc(C(C)=O)cc3)=C2)cc1OC	inconclusive: 12.6 µM [inhibitor, single point]	
O=C(CSc1nc(=O)n2cc(Cl)ccc2n1)Nc1ccc2c(c1)OCCO2	inconclusive: 1.41 µM [inhibitor, partial curve, poor fit]	
CC(C)C[C@H](N)c1nnc(SCc2ccc(Cl)cc2Cl)o1		inactive: -20.2% [at 46.1 µM]
Cc1ccc(-c2nc(S(=O)(=O)c3ccc(F)cc3)c(N3CCN(c4ccccc4)CC3)o2)cc1	inconclusive: 0.891 µM [inhibitor, full curve, poor fit]	
COc1ccc2c(c1)C1(C)CC(C)(C)N2C(=O)N1c1ccccc1 (centres undefined)		inactive: 5.47%
Cc1oc(-c2ccc(Cl)cc2)nc1CSCC(=O)NC1CCN(Cc2ccccc2)CC1	inconclusive: 35.5 µM [inhibitor, single point]	
CN(C)S(=O)(=O)c1ccc(Cl)c(NC(=O)CN2CCc3ccccc3C2)c1	inconclusive: 35.5 µM [inhibitor, single point]	
Cc1cc(=O)[nH]c(S/C=C/c2ccccc2)n1	inconclusive: 1.16 µM [inhibitor, full curve, poor fit]	
O=C(NCc1ccccc1)c1ccc(C(=O)N(C2CCCCC2)C2CCCCC2)cc1	inconclusive: 14.6 µM [inhibitor, partial curve, poor fit]	
CN(CCO)c1ccc([N+](=O)[O-])cc1C(=O)O		inactive: -2.8%
O=C(Nc1ccc2c(c1)CCCN2C(=O)c1cccs1)c1cccc(F)c1	inconclusive: 4.47 µM [inhibitor, full curve, poor fit]	
CCCCn1c(SCC(=O)c2ccc(OCC)cc2)nc2cc(S(N)(=O)=O)ccc21		inactive: -4.92%
CC(C)(C)N=C1NN=C(c2cc3ccccc3o2)CS1	inconclusive: 12.6 µM [inhibitor, single point]	
CCOc1ccccc1NC(=O)c1cc(-c2ccncc2)nc2c(Cl)cccc12	inconclusive: 35.5 µM [inhibitor, single point]	
CCOC(=O)c1c(C)oc2c1c(C(c1cccnc1)N1CCOCC1)c(O)c1ccccc12 (centres undefined)		inactive: -4.34%
COCCn1nnnc1C(c1ccccn1)N1CCN(c2cc(C)ccc2C)CC1 (centres undefined)	inconclusive: 2.59 µM [inhibitor, partial curve, poor fit]	

SMILES	Potency	activity change, negative = inhibition
O=C(Cc1cccs1)Nc1ccc(-c2nnc(-c3ccccc3)o2)cc1		inconclusive: 6.67% [activator]
O=[N+]([O-])c1ccc(N(CC2CO2)S(=O)(=O)c2ccccc2)cc1 (centres undefined)	inconclusive: 11.2 µM [inhibitor, single point]	
O=C(CSc1nnc2ccccn12)Nc1cccc(-c2nc3ccccc3s2)c1	inconclusive: 8.91 µM [activator, partial curve, poor fit]	
CCOc1ccccc1NC(=O)Cn1nnc(C(=O)NCc2cccs2)c1N	inconclusive: 3.16 µM [inhibitor, partial curve, poor fit]	
CC(=O)Nc1ccccc1C(=O)OCC(=O)c1ccc2ccccc2c1	inconclusive: 18.3 µM [inhibitor, single point]	
CCN(c1cccc(C)c1)S(=O)(=O)c1ccc2c(c1)oc(=O)n2C	inconclusive: 5.01 µM [inhibitor, full curve, poor fit]	
CCCCN(C(=O)c1cc(-c2ccco2)nc2ccccc12)c1c(N)n(CCCC)c(=O)[nH]c1=O	inconclusive: 35.5 µM [inhibitor, single point]	
CCNC(=S)N=Nc1c(O)[nH]c2ccc(C(C)C)cc12	active: 3.55 µM	
c1ccc(Cc2nn3c(COc4ccccc4)nnc3s2)cc1		inactive: -13.4%
CCOC(=O)C1CCCN(C(=O)c2ccc(C)cc2O)C1 (centres undefined)	inconclusive: 29.1 µM [inhibitor, single point]	
Cc1ccccc1C(=O)NC(CC(C)C)C(=O)Nc1ccc(F)c([N+](=O)[O-])c1 (centres undefined)	inconclusive: 1.26 µM [inhibitor, single point]	
CCN(CC)CCCNC(=S)N1CCN(c2nc(-c3ccc(F)cc3)cs2)CC1	inconclusive: 35.5 µM [inhibitor, partial curve, poor fit]	
CCC(C)C(NC(=O)C(CC(C)C)NC(=O)C(CO)NC(=O)C1CCC(=O)N1)C(=O)OC (centres undefined) ([pGlu]SLI-OMe; configuration not given here)	inconclusive: 0.092 µM [activator, full curve, poor fit]	
COc1cc(/C=C/c2cc(C(=O)O)c3ccccc3n2)cc(OC)c1O		inactive: -0.801% [at 46.1 µM]
O=C(NCCc1ccc(F)cc1)C(=O)NCC(c1ccco1)S(=O)(=O)c1cccs1 (centres undefined)	inconclusive: 6.31 µM [inhibitor, single point]	
COc1cc(N(C)C)c([N+](=O)[O-])cc1C(=O)N1CCN(Cc2ccccc2)CC1		inactive: -3.57%
CCOc1ccccc1OCC(=O)Nc1cccc(S(=O)(=O)N2CCCCCC2)c1	inconclusive: 12.6 µM [inhibitor, partial curve, poor fit]	
CS(=O)(=O)c1ccc(NCCc2ccc(S(N)(=O)=O)cc2)c([N+](=O)[O-])c1	inconclusive: 35.5 µM [inhibitor, single point]	
CC(=O)c1ccc(NC(=O)[C@@H]2CCCN2C(=O)OC(C)(C)C)cc1	inconclusive: 2.51 µM [activator, partial curve, poor fit]	
COc1ccccc1-c1cc(C(=O)Nc2cc(C)nn2-c2ccccc2)no1	inconclusive: 1.83 µM [inhibitor, partial curve]	

Arranged by length of the SMILES (largest number first): part of the list above.
SMILES	Potency	activity change, negative = inhibition
CCCCN(C(=O)c1cc(-c2ccco2)nc2ccccc12)c1c(N)n(CCCC)c(=O)[nH]c1=O	inconclusive: 35.5 µM [inhibitor, single point]	
CCC(C)C(NC(=O)C(CC(C)C)NC(=O)C(CO)NC(=O)C1CCC(=O)N1)C(=O)OC (centres undefined) ([pGlu]SLI-OMe; configuration not given here)	inconclusive: 0.092 µM [activator, full curve, poor fit]	
Cc1ccccc1C(=O)NC(CC(C)C)C(=O)Nc1ccc(F)c([N+](=O)[O-])c1 (centres undefined)	inconclusive: 1.26 µM [inhibitor, single point]	
O=[N+]([O-])c1ccc(N(CC2CO2)S(=O)(=O)c2ccccc2)cc1 (centres undefined)	inconclusive: 11.2 µM [inhibitor, single point]	
CCN(CC)CCCNC(=S)N1CCN(c2nc(-c3ccc(F)cc3)cs2)CC1	inconclusive: 35.5 µM [inhibitor, partial curve, poor fit]	
CCN(c1cccc(C)c1)S(=O)(=O)c1ccc2c(c1)oc(=O)n2C	inconclusive: 5.01 µM [inhibitor, full curve, poor fit]	
O=C(Cc1cccs1)Nc1ccc(-c2nnc(-c3ccccc3)o2)cc1		inconclusive: 6.67% [activator]
CCOc1ccccc1NC(=O)Cn1nnc(C(=O)NCc2cccs2)c1N	inconclusive: 3.16 µM [inhibitor, partial curve, poor fit]	
CC(=O)Nc1ccccc1C(=O)OCC(=O)c1ccc2ccccc2c1	inconclusive: 18.3 µM [inhibitor, single point]	
CCNC(=S)N=Nc1c(O)[nH]c2ccc(C(C)C)cc12	active: 3.55 µM	
c1ccc(Cc2nn3c(COc4ccccc4)nnc3s2)cc1		inactive: -13.4%
